In PMC11388340 one finds binding data, which are given here for one substance.

No constants are given. Whether binding was seen depends on the method and setting. Some binding calls cover weakened binding; strength is not graded here.

Assay [1] concerns the target HIRA 1 to 473 (HIRA-WB) (human) (UniProt P54198). Briefly: SEC; HIRA-WB and UBN1-NM co-expressed in Sf9 and co-purified by nickel affinity (His tag on HIRA), heparin and SEC; 20 mM HEPES pH 6.95, 500 mM NaCl, 0.5 mM TCEP; both purified. Background: In gel filtration, larger molecules generally elute earlier.
Assay [2] has the same target. Nature of the assay: mass photometry; TwoMP mass photometer, complexes diluted with 20 mM HEPES pH 7.5, 150 mM NaCl, 0.5 mM TCEP; both purified.

In the case of “UBN1 1 to 584 (UBN1-NM) (from UniProt Q9NPG3 1-584) (domain or fragment)”, the binding result in assay [1] and in assay [2] was “binds” throughout.
